Test system: male Wistar rats
Assay: Experiment 2: four-day oral treatment of rats, roflumilast-mediated effects with or without SC-560 or Lumiracoxib
Type: in vivo, rat
Conditions: four days
From the text: For pharmacokinetic analysis (determining plasma levels of the substances) one rat from each group was used on day 4; these rats were no longer available for the investigation of other parameters.
The average value±standard deviation in the body weights at time t0 was 306±11 g.

[1] = 2 mg/kg p.o. at 0800 and 1700 hours + 10 mg/kg Roflumilast at 1300 hours

SMILES: COc1ccc(-n2nc(C(F)(F)F)cc2-c2ccc(Cl)cc2)cc1 [SC-560]
- effect of co-administration on roflumilast-mediated loss of body weight (FIG. 5) [1]: no protective effect
- effect of co-administration on roflumilast-mediated loss of spleen weight (FIG. 6) [1]: no protective effect
- effect of co-administration on roflumilast-mediated mesenteric vasculitis (monocyte/polymorphonuclear perivascular infiltration, FIG. 8) [1]: no protective effect
- effect of co-administration on roflumilast-mediated neutrophilia (FIG. 7) [1]: no protective effect
- parameters measured after administration on its own (body weight, spleen weight, neutrophils, mesenteric vasculitis) (2 mg/kg p.o. at 0800 and 1700 hours, no roflumilast): very similar to the control groups

From patent US8877758B2, “Combinations of medicaments, containing PDE4-inhibitors and EP4-receptor-antagonists” (Boehringer Ingelheim International GmbH, priority 2010, dated 2014)
